{"source": "patent US20060040945A1", "about": "“Annellated pyrrole compounds as proton pump inhibitors for treating ulcer” (MERCKLE GMBH, priority 2002, published 2006)", "system": "rabbit gastric parietal cells", "test": "[14C]-aminopyrine (acid) accumulation in isolated gastric parietal cells", "type": "cell-based", "settings": "up to concentrations of 10^−4 M", "description": "Strategy. Gastric parietal cells were isolated from New Zealand White Rabbits by pronase/collagenase digestion of fundic mucosa followed by enrichment of cells on discontinuous Nycodenz gradients in a manner known per se. Aminopyrine accumulation into parietal cells was assessed in 96 well filter plates with Durapore membranes. […] All determinations were performed in quadruplicate. Basal aminopyrine accumulation was determined as aminopyrine accumulation into […] (a reflection of non-specific isotope trapping)."}
{"smiles": "COc1ccc2cc([C@H](C)C(=O)O)ccc2c1", "note": "[naproxen]", "values": [{"measurement": "effect on acid accumulation by isolated rabbit parietal cells", "value": "no effect"}]}
